These are yes or no findings as the source states them, for the method shown. In cells and extracts the contact can be indirect. Some results given as binding are weak or reduced against the parent protein; the word gives no strength.
How the values were obtained:
[1] = biological target: T1, UPF1 (Up-frameshift Protein 1) (human (endogenous in MCF7)) (UniProt Q92900); assay: co-IP
T1 sequence: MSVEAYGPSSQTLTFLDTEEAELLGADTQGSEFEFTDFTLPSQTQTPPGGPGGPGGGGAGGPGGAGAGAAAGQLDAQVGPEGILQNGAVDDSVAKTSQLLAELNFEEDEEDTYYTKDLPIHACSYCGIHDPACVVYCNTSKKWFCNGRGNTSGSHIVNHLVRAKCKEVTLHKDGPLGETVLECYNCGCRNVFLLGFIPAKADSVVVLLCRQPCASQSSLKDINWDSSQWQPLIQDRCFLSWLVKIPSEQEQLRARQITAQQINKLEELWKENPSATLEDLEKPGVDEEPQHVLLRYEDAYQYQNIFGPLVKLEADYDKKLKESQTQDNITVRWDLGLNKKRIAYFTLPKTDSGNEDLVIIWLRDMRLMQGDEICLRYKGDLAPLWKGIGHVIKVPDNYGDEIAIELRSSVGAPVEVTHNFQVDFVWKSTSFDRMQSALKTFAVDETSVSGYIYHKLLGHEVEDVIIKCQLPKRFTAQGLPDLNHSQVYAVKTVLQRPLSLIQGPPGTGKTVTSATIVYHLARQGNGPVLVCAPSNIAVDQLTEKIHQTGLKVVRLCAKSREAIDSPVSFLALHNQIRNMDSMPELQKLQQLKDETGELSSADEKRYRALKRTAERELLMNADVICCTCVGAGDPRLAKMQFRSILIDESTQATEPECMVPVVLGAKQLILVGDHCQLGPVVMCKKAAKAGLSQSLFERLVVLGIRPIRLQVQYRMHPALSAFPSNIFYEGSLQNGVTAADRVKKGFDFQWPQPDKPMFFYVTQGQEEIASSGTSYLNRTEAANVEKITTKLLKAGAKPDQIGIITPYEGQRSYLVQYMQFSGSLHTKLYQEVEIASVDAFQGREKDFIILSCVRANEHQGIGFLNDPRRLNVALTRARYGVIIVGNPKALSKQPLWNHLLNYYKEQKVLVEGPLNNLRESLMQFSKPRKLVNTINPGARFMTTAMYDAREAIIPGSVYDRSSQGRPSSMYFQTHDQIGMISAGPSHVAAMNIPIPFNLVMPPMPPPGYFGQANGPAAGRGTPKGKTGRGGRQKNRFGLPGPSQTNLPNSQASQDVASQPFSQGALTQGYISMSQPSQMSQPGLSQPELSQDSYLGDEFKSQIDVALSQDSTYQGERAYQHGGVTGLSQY

Amino acid sequences for entries named in this document (tags omitted).
UniProt P38919: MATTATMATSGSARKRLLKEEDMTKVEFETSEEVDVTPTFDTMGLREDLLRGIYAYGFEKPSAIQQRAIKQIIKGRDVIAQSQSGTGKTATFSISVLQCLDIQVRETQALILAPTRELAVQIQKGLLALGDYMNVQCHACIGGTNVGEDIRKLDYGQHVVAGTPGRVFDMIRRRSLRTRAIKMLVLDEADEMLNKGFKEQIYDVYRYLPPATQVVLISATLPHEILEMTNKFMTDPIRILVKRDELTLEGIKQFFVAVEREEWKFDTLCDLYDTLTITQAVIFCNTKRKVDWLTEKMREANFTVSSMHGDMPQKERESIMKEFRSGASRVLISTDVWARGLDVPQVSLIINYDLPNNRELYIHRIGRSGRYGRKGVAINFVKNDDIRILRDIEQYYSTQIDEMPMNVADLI

[2] = biological target: eIF4A3 (human (endogenous in MCF7)) (UniProt P38919); assay: proximity ligation
[3] = biological target: eIF4A3 (human (endogenous in MCF7)) (UniProt P38919); assay: co-IP

Substance	binding [1]	binding [2]	binding [3]
FRG1 (FSHD Region Gene 1) (from UniProt Q14331 1-258)	binds	binds	–
FRG1, ectopically expressed (PLX304_FRG1) (from UniProt Q14331 1-258)	binds	–	binds
